# Test results taken from article PMC3386966.
# Amino acid sequences for entries named in this document (tags omitted). Residues count along the entry.
# UniProt Q99523, residues 78-755: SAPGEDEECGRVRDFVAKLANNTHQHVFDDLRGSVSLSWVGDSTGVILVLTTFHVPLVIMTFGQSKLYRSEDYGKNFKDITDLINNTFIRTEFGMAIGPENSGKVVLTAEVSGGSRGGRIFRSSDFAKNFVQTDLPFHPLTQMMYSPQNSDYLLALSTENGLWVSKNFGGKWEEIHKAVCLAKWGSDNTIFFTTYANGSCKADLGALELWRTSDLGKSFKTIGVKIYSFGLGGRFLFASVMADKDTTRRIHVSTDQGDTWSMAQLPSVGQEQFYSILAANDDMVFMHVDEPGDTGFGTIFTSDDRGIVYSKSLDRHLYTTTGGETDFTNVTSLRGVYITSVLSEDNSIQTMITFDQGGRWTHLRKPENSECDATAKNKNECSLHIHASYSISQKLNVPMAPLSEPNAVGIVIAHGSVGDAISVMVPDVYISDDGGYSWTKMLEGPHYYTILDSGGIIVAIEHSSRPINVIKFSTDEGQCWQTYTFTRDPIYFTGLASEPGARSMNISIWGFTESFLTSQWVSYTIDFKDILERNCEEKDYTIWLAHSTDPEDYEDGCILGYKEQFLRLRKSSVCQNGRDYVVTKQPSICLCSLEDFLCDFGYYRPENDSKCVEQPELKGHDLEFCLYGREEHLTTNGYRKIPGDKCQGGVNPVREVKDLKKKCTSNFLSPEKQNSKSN
# UniProt P11717, residues 41-1365: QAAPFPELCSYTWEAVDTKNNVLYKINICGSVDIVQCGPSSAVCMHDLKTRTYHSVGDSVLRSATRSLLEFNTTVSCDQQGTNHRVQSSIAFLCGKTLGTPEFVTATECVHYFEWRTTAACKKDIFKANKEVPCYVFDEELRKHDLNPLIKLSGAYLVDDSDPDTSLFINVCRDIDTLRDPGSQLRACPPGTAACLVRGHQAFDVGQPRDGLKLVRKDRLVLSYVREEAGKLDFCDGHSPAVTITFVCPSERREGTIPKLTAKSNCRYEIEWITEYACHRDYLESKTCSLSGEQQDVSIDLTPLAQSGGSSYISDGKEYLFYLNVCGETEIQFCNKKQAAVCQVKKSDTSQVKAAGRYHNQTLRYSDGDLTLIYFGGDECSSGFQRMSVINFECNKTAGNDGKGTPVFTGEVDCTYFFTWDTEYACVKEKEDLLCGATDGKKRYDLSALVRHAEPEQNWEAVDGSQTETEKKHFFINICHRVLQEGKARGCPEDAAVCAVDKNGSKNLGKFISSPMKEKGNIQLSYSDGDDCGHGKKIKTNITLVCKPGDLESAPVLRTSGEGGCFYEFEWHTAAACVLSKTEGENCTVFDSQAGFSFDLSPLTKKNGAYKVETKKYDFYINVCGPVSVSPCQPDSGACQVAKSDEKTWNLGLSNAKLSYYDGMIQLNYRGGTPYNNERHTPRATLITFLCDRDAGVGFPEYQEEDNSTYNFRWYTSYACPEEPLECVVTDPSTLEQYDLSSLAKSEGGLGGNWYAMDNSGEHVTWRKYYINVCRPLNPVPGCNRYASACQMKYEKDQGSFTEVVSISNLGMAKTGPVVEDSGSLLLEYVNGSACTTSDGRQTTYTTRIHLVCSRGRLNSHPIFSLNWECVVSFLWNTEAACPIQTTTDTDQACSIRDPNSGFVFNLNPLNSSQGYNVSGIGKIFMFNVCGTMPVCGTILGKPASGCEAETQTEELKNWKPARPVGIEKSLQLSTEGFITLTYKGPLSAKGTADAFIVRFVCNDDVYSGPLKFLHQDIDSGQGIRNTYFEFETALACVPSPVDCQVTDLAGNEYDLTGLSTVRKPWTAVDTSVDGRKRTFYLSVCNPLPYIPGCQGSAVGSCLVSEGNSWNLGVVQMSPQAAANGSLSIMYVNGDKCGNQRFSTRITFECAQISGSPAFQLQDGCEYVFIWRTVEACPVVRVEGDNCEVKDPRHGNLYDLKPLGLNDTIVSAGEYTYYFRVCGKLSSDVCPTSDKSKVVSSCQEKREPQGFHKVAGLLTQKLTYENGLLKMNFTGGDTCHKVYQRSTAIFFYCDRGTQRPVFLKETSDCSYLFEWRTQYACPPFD
# Results are given in words; binding and its absence hold for the method and conditions named. Some binding calls cover weakened binding; strength is not graded here.
# Target: Affinity purified soluble human sortilin (human) (UniProt Q99523)
# Assay: SPR; BIAcore CM5 chip; sortilin immobilized (72 to 75 fmol/mm^2); M6PR (41-1365aa) injected to saturation, or flow buffer, prior to injection of α-Gal A; both purified
substance,measurement,value
Recombinant human M6PR (6418-GR) containing the residues Gln41-Asp1365 (from UniProt P11717 41-1365) (domain or fragment),binding,binds
